Results deposited as PubChem BioAssay AID1224830 (NIAID, 2016).

- Screen: 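Regulators of TLR4 signalling towards TNF-alpha in macrophage-like cells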 (primary screen)
- System: human THP-1 monocytic leukaemia cells, TNF dual-luciferase reporter clone, PMA-differentiated to macrophage-like cells
- Reagents: siRNA pool against human genes, 50 nM
- Time to read-out: LPS for 4 h, given about 3 days after siRNA transfection
- Challenge: bacterial LPS (TLR4 ligand), 10 ng/ml
- Read-out: 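Ratio of firefly to renilla light, scaled to the plate median and expressed as a robust z-score per replicate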
- Scale: TNF reporter robust z-score: higher = stronger TNF reporter response to LPS
- Active means: 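a well is active when its z-score exceeds 2.8 or falls below -1.5; control wells carry no call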
Here is an unselected part of about 18,000 reagents tested. Of all reagents, about 2,900 (16%) are marked active. 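Calls are made per well; low scores hint the gene aids the LPS response, high scores that it dampens it.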 Entries without a mark were called inactive. Repeated entries: four replicate wells of each siRNA pool.

AMMECR1L | TNF reporter robust z-score = -0.34
AMMECR1L | TNF reporter robust z-score = 0.79
AMMECR1L | TNF reporter robust z-score = -0.86
AMMECR1L | TNF reporter robust z-score = -1.06
ARFGEF2 | TNF reporter robust z-score = 0.45
ARFGEF2 | TNF reporter robust z-score = 1.52
ARFGEF2 | TNF reporter robust z-score = -1.2
ARFGEF2 | TNF reporter robust z-score = -0.98
PLGLB1 | TNF reporter robust z-score = -0.39
PLGLB1 | TNF reporter robust z-score = 0.24
PLGLB1 | TNF reporter robust z-score = -0.41
PLGLB1 | TNF reporter robust z-score = 0.54
LIX1L | TNF reporter robust z-score = 0.5
LIX1L | TNF reporter robust z-score = 0.38
LIX1L | TNF reporter robust z-score = 1.94
LIX1L | TNF reporter robust z-score = 0.65
RANBP9 | TNF reporter robust z-score = -0.67
RANBP9 | TNF reporter robust z-score = -1.12
RANBP9 | TNF reporter robust z-score = 0.04
CRNN | TNF reporter robust z-score = -0.7
CRNN | TNF reporter robust z-score = -0.94
CRNN | TNF reporter robust z-score = -1.28
CRNN | TNF reporter robust z-score = -1.27
ST20-AS1 | TNF reporter robust z-score = 1.04
ST20-AS1 | TNF reporter robust z-score = 0.08
ST20-AS1 | TNF reporter robust z-score = -0.04
ST20-AS1 | TNF reporter robust z-score = 0.01
IL7R | TNF reporter robust z-score = -0.31
IL7R | TNF reporter robust z-score = 0.74
IL7R | TNF reporter robust z-score = 0.19
IL7R | TNF reporter robust z-score = -0.42
SIN3B | TNF reporter robust z-score = -1.33
SIN3B | TNF reporter robust z-score = -0.91
SIN3B | TNF reporter robust z-score = -0.96
SIN3B | TNF reporter robust z-score = -0.46
GLYATL2 | TNF reporter robust z-score = -0.09
GLYATL2 | TNF reporter robust z-score = 0.27
GLYATL2 | TNF reporter robust z-score = 0.8
GLYATL2 | TNF reporter robust z-score = 0.1
SAA4 | TNF reporter robust z-score = 0.85
SAA4 | TNF reporter robust z-score = 0.3
SAA4 | TNF reporter robust z-score = 0.34
SAA4 | TNF reporter robust z-score = -0.52
USP34 | TNF reporter robust z-score = -1.03
USP34 | TNF reporter robust z-score = 0.73
USP34 | TNF reporter robust z-score = 0.63
USP34 | TNF reporter robust z-score = 0.48
C1orf210 | TNF reporter robust z-score = -0.64
C1orf210 | TNF reporter robust z-score = -0.29
C1orf210 | TNF reporter robust z-score = -0.56
C1orf210 | TNF reporter robust z-score = 0.54
NAA15 | TNF reporter robust z-score = 1.38
NAA15 | TNF reporter robust z-score = 2.19
NAA15 | TNF reporter robust z-score = 1.04
NAA15 | TNF reporter robust z-score = 2.22
IPMK | TNF reporter robust z-score = 3.45 (active)
IPMK | TNF reporter robust z-score = 2.06
IPMK | TNF reporter robust z-score = 3.6 (active)
IPMK | TNF reporter robust z-score = 3.57 (active)
CDCP2 | TNF reporter robust z-score = -0.97
CDCP2 | TNF reporter robust z-score = -0.85
CDCP2 | TNF reporter robust z-score = -0.14
CDCP2 | TNF reporter robust z-score = -0.61

Records listed so far whose gene name begins with U or u (4):
USP34 | TNF reporter robust z-score = -1.03
USP34 | TNF reporter robust z-score = 0.73
USP34 | TNF reporter robust z-score = 0.63
USP34 | TNF reporter robust z-score = 0.48
